Primary screen of a compound library

Amino acid sequences for entries named in this document (tags omitted).
UniProt E9BF75, entry or part of it: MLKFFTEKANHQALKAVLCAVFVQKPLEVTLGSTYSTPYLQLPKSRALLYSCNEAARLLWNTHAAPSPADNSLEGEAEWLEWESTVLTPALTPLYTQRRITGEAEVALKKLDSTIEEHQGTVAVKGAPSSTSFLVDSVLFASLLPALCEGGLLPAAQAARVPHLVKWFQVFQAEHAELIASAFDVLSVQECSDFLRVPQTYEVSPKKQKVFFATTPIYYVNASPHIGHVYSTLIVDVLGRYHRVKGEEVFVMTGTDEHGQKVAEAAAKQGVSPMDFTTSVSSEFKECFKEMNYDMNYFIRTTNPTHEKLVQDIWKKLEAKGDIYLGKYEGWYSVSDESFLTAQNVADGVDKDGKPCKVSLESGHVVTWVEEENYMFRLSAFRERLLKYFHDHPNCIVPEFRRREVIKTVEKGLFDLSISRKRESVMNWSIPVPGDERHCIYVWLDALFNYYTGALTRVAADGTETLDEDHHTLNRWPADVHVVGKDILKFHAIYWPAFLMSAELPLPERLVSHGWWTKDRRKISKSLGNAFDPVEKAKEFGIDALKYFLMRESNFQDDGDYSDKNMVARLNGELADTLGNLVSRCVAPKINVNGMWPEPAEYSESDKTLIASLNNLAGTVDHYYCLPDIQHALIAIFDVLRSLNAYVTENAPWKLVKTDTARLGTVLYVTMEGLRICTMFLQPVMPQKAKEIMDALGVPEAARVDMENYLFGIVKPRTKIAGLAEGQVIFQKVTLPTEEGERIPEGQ

The values are deposited in ChEMBL (CHEMBL3988442, “University of Dundee, Small-Polar-MMV Screening Library” (2021)).

A: 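Primary screen of methionyl-tRNA synthetase; the read-out is not stated. Target: Methionyl-tRNA synthetase (putative), Leishmania donovani (UniProt E9BF75). The test concentration is not given. The values are filed as inhibition. About 68,000 compounds were tested under these conditions; 0.035% (about 24) showed 50% or more at least once.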
B: 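Assay on Mycobacterium tuberculosis, filed only as a heat shock assay from Cornell; the read-out is not stated. The concentration is filed as 10 mM, unlikely as a test dose, so the dose is not known. Higher reads as stronger inhibition (inferred: compounds with an IC50 in retests scored well above the rest). Of about 69,000 compounds tested this way, about 930 (1.4%) reached 50% or more in at least one test.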

All values are in %. How 0% and 100% were set is not recorded. Most values in the screen are low, and negative values occur. The compounds are a random part of those screened.

structure: O=C(Nc1nncs1)c1ccc(O)nc1
A: 29.07%
B: -1.29%

structure: CNC(=O)c1cn2cc(-c3ccccc3Cl)n(CC=C(C)C)c(=O)c2n1
A: 2.091%
B: -14.38%

structure: CCOCCNC(=O)C1CCC(=O)N(CCc2ccc(Cl)cc2)C1 (configuration not stated)
A: 11.61%
B: -20.01%

structure: Cc1ccc([C@@H]2CN(C(=O)c3ccc[nH]3)C[C@H]2NC(=O)C2CC2)cc1
A: 4.444%
B: -1.379%

structure: COc1cc(CNCC(O)c2ccc(F)cc2F)cc2c1OCO2 (configuration not stated)
A: 15.64%
B: 12.7%

structure: Cc1ccc(NC(=O)C(C)N2CCCN(c3nccs3)CC2)c(C)c1 (configuration not stated)
A: 4.908%
B: 58.85%

structure: CCC(CC)C(=O)N1CCOC2(COCCN(CC(=O)NC)C2)C1.O=C(O)C(F)(F)F (configuration not stated)
B: -7.076%

structure: Cc1ccc(C)c(NC(=O)Cc2c(C)nc3c(c2C)c(=O)[nH]n3C)c1
A: 3.846%
B: -7.14%

structure: Cn1cc(CNCC2(N3CCCCC3)Cc3ccccc3C2)cn1
A: 6.948%
B: -9.962%

structure: O=C(COC1CCCC1)NCc1ccc(O)c(F)c1
A: 3.073%
B: 29.92%

structure: Cc1cc(S(=O)(=O)NCC(O)c2sccc2C)ccc1F (configuration not stated)
A: 12.95%
B: 7.35%

structure: O=C(O)C(F)(F)F.O=C(O)C(F)(F)F.[H][C@@]12COC[C@]1(CN1CCOCC1)CN(S(=O)(=O)c1cccnc1)C2
B: -24.48%

structure: O=C(O)C(F)(F)F.[H][C@@]12CCN(C(=O)Cc3cccs3)[C@@]1([H])CC(=O)N2Cc1ccncc1
B: -13.92%

structure: [H][C@@]12CCN(c3ccc(C)nn3)C[C@]1(C(=O)NCC1CC1)CCO2
B: 7.21%

structure: O=C(Nc1cccnc1)C1Cc2nc(-c3ccsc3)sc2N1CC1CC1.O=C(O)C(F)(F)F (configuration not stated)
B: 9.516%

structure: CCN1C(=O)CC(c2cnn(C)c2)C12CCN(C(=O)c1ccc[nH]1)CC2 (configuration not stated)
A: 12.78%
B: -38.68%

structure: Cc1cc(N2CCc3c(ncn3C3CC3)C2)nc(N)n1
A: 10.6%
B: 30.85%

structure: Cn1nccc1-c1nnn2c1COCC(CNC1CCOCC1)C2.O=C(O)C(F)(F)F.O=C(O)C(F)(F)F (configuration not stated)
B: 3.559%

structure: O=C(O)c1ccc(S(=O)(=O)Nc2c(F)cccc2-n2cccn2)cc1
A: 23.34%
B: -30.27%

structure: Cc1ccoc1C(=O)N1CCOCC2(CCN(c3ncccn3)C2)C1 (configuration not stated)
A: 17.47%

structure: CCOC(=O)CSc1ccc(-c2nc(C)no2)cn1
A: 13.66%
B: 2.762%

structure: Cc1noc(C2CCCN(C(=O)c3scnc3Cl)C2)n1 (configuration not stated)
A: 9.61%
B: -1.02%

structure: COCCNc1nnc(-c2ccc(C)nc2)s1
A: 11.39%
B: -13.39%

structure: Cc1ccsc1C(=O)N1CCc2ncc(Cn3cccn3)n2CC1
A: 11.2%
B: -9.488%

structure: CCOCC1CN(C(=O)C2CCOCC2)Cc2cnn(C)c21 (configuration not stated)
A: 2.466%
B: 0.3008%

structure: CNS(=O)(=O)c1csc(C(=O)NCc2sccc2C)c1
A: 12.78%
B: 25.19%

structure: N#Cc1cccc(C(=O)N2CC(c3nc(-c4ccc[nH]c4=O)no3)C2)c1
A: 5.036%
B: -10.71%

structure: CC(C)n1cc(CN2CCCN(C(=O)C3(C)CCOCC3)CC2)cn1
A: 10.43%
B: -11.88%

structure: O=C(O)C(F)(F)F.[H][C@@]12CCN(C(=O)c3cnn(C)c3)[C@@]1([H])CCN2Cc1ccc(OC)cc1
B: 1.435%

structure: Cc1cnn(CC(=O)N2CCCN(c3nc(C)cs3)CC2)c1
A: 25.07%
B: -16.9%

structure: Cc1nn(-c2ccccc2)c2c1C(c1ccc(C(=O)O)cc1)CC(=O)N2 (configuration not stated)
A: 17.56%
B: 3.377%

structure: Cc1ccc(CN2CC[C@H]3[C@H]2CC(=O)N3c2cccnc2)o1
A: 3.141%

structure: COc1ccc(CC(=O)N2CC[C@H](CO)[C@H](O)C2)c(OC)c1
A: 14.29%
B: 19.48%

structure: Cn1nccc1C(=O)N1CCOC(Cc2ccc(F)cc2)C1 (configuration not stated)
A: 1.37%
B: -14.9%

structure: Cc1ccsc1-c1nccn1CCN1CCCCC1CO (configuration not stated)
A: 10.12%
B: 14.7%

structure: COCCNC(=O)c1cc2c(c3ccccc3n2C)n1C(=O)N(C)C
A: 4%
B: -5.369%

structure: CC(NC(=O)CCn1cccn1)c1ccc2c(c1)OCCO2 (configuration not stated)
A: 10.54%
B: -17.64%

structure: Cc1ccc(CN(C)C(=O)CN2CC(n3cccn3)C2)o1
A: 7.042%
B: -24.05%

For reference, 2 entries once more:

{"structure": "Cc1ccc(NC(=O)C(C)N2CCCN(c3nccs3)CC2)c(C)c1", "stereo": "configuration not stated", "A": 4.908, "B": 58.85}
{"structure": "Cc1cc(S(=O)(=O)NCC(O)c2sccc2C)ccc1F", "stereo": "configuration not stated", "A": 12.95, "B": 7.35}